# Results are given in words; binding and its absence hold for the method and conditions named. A result given as binding can be weak or reduced; the word gives no strength.
# Sequences of proteins named here, by UniProt entry; tags and fusion partners are left off. Residues count along the entry.
# UniProt Q6PDQ2, residues 1658-1915: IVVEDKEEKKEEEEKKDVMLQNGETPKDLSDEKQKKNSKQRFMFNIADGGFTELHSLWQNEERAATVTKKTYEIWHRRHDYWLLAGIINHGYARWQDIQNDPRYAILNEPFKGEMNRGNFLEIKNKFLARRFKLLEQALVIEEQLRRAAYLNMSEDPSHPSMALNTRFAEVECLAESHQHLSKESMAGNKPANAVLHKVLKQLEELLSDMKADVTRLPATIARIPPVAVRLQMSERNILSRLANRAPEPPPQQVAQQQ
# Columns and labels:
# [1] = biological target: GAL4-BD fusion of the N-terminal region of Zinc finger protein 819 (Zfp819_N) (mouse) (UniProt F7A2T8); experiment: two-hybrid; direct-Y2H: purified prey clone co-transformed with bait construct or empty pGBKT7 into AH109; SD/-Leu/-Trp, then SD/-Leu/-Trp/-His/-Ade and X-alpha-Gal plates
# [2] = biological target: GAL4-BD fusion of the N-terminal region of Zinc finger protein 819 (Zfp819_N) (mouse) (UniProt F7A2T8); experiment: two-hybrid; GAL4-based library screen: mouse ESC cDNA library (pGADT7-Rec, AH109) mated with Y187 carrying pGBKT7-Zfp819_N; selection on SD/-Leu/-Trp/-His/-Ade and X-alpha-Gal; auto-activating clones excluded by direct-Y2H
substance,measurement,setting,value
"Chromodomain helicase DNA-binding protein 4 (Chd4), C-terminal region prey clone (from UniProt Q6PDQ2 1658-1915) (domain or fragment)",binding,[1],binds
same,binding,[2],binds

# — PMC3636440
